In the supplement of paper PMC12889115:
Some of the results follow. Values are raw readings; no control value is given beside them.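 In the initial screen, polymyxin B was used at a concentration that permeabilizes Salmonella's outer membrane but not its inner membrane. Maximum growth was set by DMSO wells with or without polymyxin B. Since plates varied, data were ranked per plate, and compounds giving the lowest OD600 advanced as hits.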

System: Salmonella enterica serovar Typhimurium SL1344
Assay: bacterial growth OD600 after 18 h with compound and polymyxin B; higher = more bacterial growth (less inhibition)
Details: 50 µM, Mueller-Hinton broth

Structure (SMILES)	bacterial growth OD600 (polymyxin B 1 µg/mL)	bacterial growth OD600 (polymyxin B 0.75 µg/mL)
COCCNC(=O)c1ccc(OC2CCN(C3CCOCC3)CC2)c(Cl)c1	0.908	
COc1ccc(Cc2noc(-c3ccc(N(C)Cc4nonc4C)nc3)n2)cc1	0.777	
COC(=O)[C@@H]1CCCN1C(=O)c1cc(Cn2c(C)nc3ccccc32)on1	1.04	
CCC1CN(CCC(=O)NCc2ccc3c(c2)OCO3)Cc2cc(OC)ccc2O1 (stereo unspecified)		0.926
Cc1ccc(-c2ccnc(-n3ncc(C(=O)NCC4(N5CCCCC5)CCCC4)c3C3CC3)n2)o1		0.789
Cn1c(CN2CCOc3ccc(C4=Cc5ccccc5CC4)cc3C2)nc2ccccc21		0.093
CCOC(=O)N1CCN(C2CCCN(Cc3cc(C)ccc3-n3cccn3)C2)CC1 (stereo unspecified)	1.04	
CCOc1ccc2nc(N3CCC(NCc4ccc(C)o4)CC3)nc(C)c2c1		0.705
COc1ccc(/C=C/C(=O)NCCN2Cc3ccccc3OC(c3ccsc3)C2)cc1OC (stereo unspecified)		0.009
COC(=O)CC1C(=O)NCCN1C(=O)c1csc2nc(-c3ccccc3)cn12 (stereo unspecified)	1.1	
CC(Cn1cncn1)NC(=O)c1ccc2oc(CCc3ccccc3)nc2c1 (stereo unspecified)	0.822	
Cc1oc(-c2ccc(C(F)(F)F)cc2)nc1CN(C)C(C)c1ccon1 (stereo unspecified)	0.527	
c1ccc2c(NC3CCCCC3)nc(CN3CCCC3c3nccs3)nc2c1 (stereo unspecified)		0.883
CC(=O)N1CCN(C(=O)CC2(c3cccc(F)c3)CC(=O)N(C3CCCC3)C2=O)CC1 (stereo unspecified)		0.828
CC(=O)N1CCN(C(=O)c2ccc(OC3CCN(S(C)(=O)=O)CC3)c(Cl)c2)CC1		0.844
Cc1ccccc1-c1noc(-c2ccc(NCCn3cccn3)nc2)n1		0.149

Structure (SMILES)	bacterial growth OD600 (polymyxin B 1 µg/mL)	bacterial growth OD600 (polymyxin B 0.75 µg/mL)
CCOC(=O)C1CCN(C(=O)c2cc(NS(=O)(=O)N(C)C)cc3nc(CC(C)C)n(C)c23)CC1		0.789
CCN1CCN(c2ccc(C(=O)N3CCCC(c4ccccc4)CC3)cn2)CC1 (stereo unspecified)	0.968	
Cc1c(C(=O)N(C)CCc2ccccn2)sc2ncnc(NC[C@H]3C[C@@H]4C=C[C@H]3C4)c12		0.008
CCCCc1nc(CN2CCCC(CNC(=O)c3cc(OC)cc(OC)c3)C2)c[nH]1 (stereo unspecified)	0.877	
OC[C@@H]1CCCN1Cc1cn(-c2ccccc2)nc1-c1ccc2c(c1)OCO2	0.812	
CCOCCCNC(=O)c1ccc(OC2CCN(S(C)(=O)=O)CC2)c(Cl)c1		0.82
Cc1c(CNC2CCCc3nc(-c4ccccc4)ncc32)cnn1C (stereo unspecified)		0.766
COc1cc(CN[C@H]2CC[C@H](O)CC2)ccc1OCC(O)CN1CCCCCCC1 (stereo partly specified)	1.08	
Cc1cnc(CNC(=O)c2coc(COc3cccc(C(F)(F)F)c3)n2)cn1	0.899	
CSCCC(=O)N1CCC2(CC1)CC2C(=O)NCCCc1ccccc1 (stereo unspecified)		0.771
CCn1cc(CN2CCC(Oc3ccc(C(=O)NCCOC)cc3Cl)CC2)cn1	0.878	
O=C(c1ccc(-n2cccn2)cc1)N1CCOc2c(cc(-c3cccnc3)cc2OCCc2cccs2)C1		0.464
CCCCc1nc2cc(C(=O)N3CCN(C)C(c4ccccc4)C3)ccc2o1 (stereo unspecified)		0.827
CCOC(=O)C1(Cc2ccc(F)cc2F)CCCN(C(=O)c2ccsc2)C1 (stereo unspecified)	1.09	
CCn1cc(CN2CCCC2C(=O)Nc2ccc(-n3ccnc3C)cc2)c(C)n1 (stereo unspecified)		0.868

Shown with each value named: entries from further up.
CCCCc1nc(CN2CCCC(CNC(=O)c3cc(OC)cc(OC)c3)C2)c[nH]1 (stereo unspecified)
  bacterial growth OD600 (polymyxin B 1 µg/mL): 0.877
O=C(c1ccc(-n2cccn2)cc1)N1CCOc2c(cc(-c3cccnc3)cc2OCCc2cccs2)C1
  bacterial growth OD600 (polymyxin B 0.75 µg/mL): 0.464
